Measured values published in PubChem BioAssay AID624291 (National Center for Advancing Translational Sciences (NCATS), 2012).
In all, about 350,000 compounds went through this assay and about 220 (0.063%) were called active. Inconclusive means that the source gave no clear call. Such entries were picked first, then a sample of the others. Calls follow the shape of the dose curve; as a rule, active = well fitted activation curve with a large enough effect; inconclusive = small, poorly fitted or top-dose-only effect; inactive = no such curve, though single readings can be large or run the other way. Where the call is inconclusive, the potency comes from a doubtful curve fit.

assay: qHTS for Activators of Integrin-Mediated Alleviation for Muscular Dystrophy; conditions: alpha7betagal myoblasts, beta-gal FDG fluorescence, 48 h; activation: at 38.3 µM (top of the series); also: nearly all actives have a fitted effect of over 60% in size;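 as to activation: 100% = response of the positive control SU9516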
How it was run: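 alpha7betagal+/- myoblasts (passage 13, 250/well) treated 48 h at 37C with compounds at 1:260 dilution of DMSO stock. Lysed, then beta-galactosidase activity read as FDG fluorescence (ex 480/em 540) after 30 min, with pre-read for autofluorescence.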
Potency is read from the fitted curve at half-maximal effect.

Compound | Potency | activation
CN(Cc1ccccc1)C(=O)C1CCC(CNS(=O)(=O)c2cccc3cccnc23)CC1 (stereo unspecified) | inconclusive: 11.2 µM [activator, single point] | –
COc1ccc(CCn2c(=O)c3cccnc3n(Cc3ccc([N+](=O)[O-])cc3)c2=O)cc1OC | inconclusive: 5.62 µM [activator, partial curve, poor fit] | –
Cn1c(=O)oc2cc(S(=O)(=O)CCC(=O)Nc3ccccc3)ccc21 | inconclusive: 5.01 µM [activator, single point] | –
O=C(Nc1cnccn1)c1cccnc1 | inconclusive: 31.6 µM [activator, partial curve, poor fit] | –
Cc1ccccc1NC(=O)c1cccc(N2C(=O)C3CCC(C)CC3C2=O)c1 (stereo unspecified) | inconclusive: 4.47 µM [activator, single point] | –
COC(=O)CCCNC(=O)c1ccc2oc(CCCc3ccccc3)nc2c1 | inactive | –
Fc1ccc(OCc2nn[nH]n2)c(F)c1 | inconclusive: 2 µM [activator, partial curve, poor fit] | –
Cc1ccc(S(=O)(=O)N2CCc3ccccc3C2CC(=O)O)cc1 (stereo unspecified) | inconclusive: 5.01 µM [activator, single point] | –
NC(=O)c1ccc(SCC(=O)NC2CCCCC2)c([N+](=O)[O-])c1 | inconclusive: 2 µM [activator, partial curve, poor fit] | –
CC(C)OCCCNC(=O)C1CCC(CNS(=O)(=O)c2ccc(Cl)cc2)CC1 (stereo unspecified) | inconclusive: 28.2 µM [activator, single point] | –
CCCNC(=O)NC(=O)CN1CCCC1c1ccc2c(c1)OCCO2 (stereo unspecified) | – | inconclusive: 15.4% [activator]
CC1CCCN(C(=O)c2cc(-c3ccco3)nc3ccccc23)C1 (stereo unspecified) | – | inconclusive: 63.6% [activator]
COc1ccc(OC)c(NC(=O)Cn2c(CCC(=O)O)ccc2-c2ccc(C)cc2)c1 | inconclusive: 3.16 µM [activator, single point] | –
CSc1ncccc1C(=O)N1CCN(C(=O)c2ccccc2)CC1 | inconclusive: 5.01 µM [activator, single point] | –
CS(=O)(=O)N(CC(=O)N1CCCCCC1)c1ccc2c(c1)OCCO2 | inconclusive: 28.2 µM [activator, single point] | –
N#CC1=C2SCN(c3ccccc3)CN2C(=O)CC1c1cccs1 (stereo unspecified) | inconclusive: 7.08 µM [activator, partial curve] | –
O=C(Nc1ccc(F)cc1F)NC1CCN(S(=O)(=O)c2ccc(F)cc2)CC1 | inconclusive: 2.24 µM [activator, single point] | –
CC(C(=O)O)n1nc(-c2ccccc2)c2ccccc21 (stereo unspecified) | inconclusive: 0.891 µM [activator, full curve, poor fit] | –
CN1OC(Cn2cc(C#N)c(=O)n(C)c2=O)CC1c1ccccc1 (stereo unspecified) | inconclusive: 3.55 µM [activator, partial curve, poor fit] | –
NC(=O)c1nsc(C(=O)N(Cc2ccc(F)cc2)C(C(=O)NC2CCCC2)c2ccco2)c1N (stereo unspecified) | inconclusive: 28.2 µM [activator, single point] | –
C/C(O)=C(\N=Nc1cc(C)ccc1O)C(N)=O | inactive | –
CCOc1ccc(NS(=O)(=O)c2ccc3c(c2)CCN3C(C)=O)cc1 | inconclusive: 2.82 µM [activator, partial curve, poor fit] | –
COc1ccccc1N(Cc1ccccc1)S(=O)(=O)c1cccc(C(=O)N2CCCCC2)c1 | inconclusive: 3.16 µM [activator, single point] | –
Cc1ccc(-c2nnc(SCC(=O)NC3CCCC3)n2C)cc1 | inactive | –

Compound | Potency | activation
CCCCNS(=O)(=O)c1ccc(NC(=O)C(Sc2ccccc2)c2ccccc2)cc1 (stereo unspecified) | inactive | –
CN(C)CCC(=O)c1ccc2c(c1)OCO2 | inactive | –
COC(=O)/C(=C\C(=O)c1ccccc1)Nc1cccc(C(F)(F)F)c1 | inactive | –
Cc1ccc(-n2nc(C)c(/C=N/n3c(C)n[nH]c3=S)c2Cl)cc1 | inactive | –
CN(C)CCCN1c2ccc(O)cc2Sc2ccc(Cl)cc21 | inactive | –
COc1ccc(N/C(N)=N/c2nc(C)c(Cc3ccccc3)c(=O)[nH]2)cc1 | inconclusive: 5.01 µM [activator, single point] | –
CC(C)(C)c1csc(NC(=O)c2cccnc2)n1 | inconclusive: 10 µM [activator, partial curve] | –
COc1ccc(N(CC(=O)Nc2ccc(Cl)cc2)S(=O)(=O)c2c(C)n[nH]c2C)cc1 | inconclusive: 4.47 µM [activator, single point] | –
CCn1c(=O)c(CCC(=O)N2CCN(c3ccccn3)CC2)c(C)c2c(C)nn(-c3ccccc3)c21 | inconclusive: 5.01 µM [activator, single point] | –
OCCN1CCN(C(=S)c2ccc(Cl)cc2)CC1 | inactive | –
c1ccc(-c2nnc(SCc3nc4ccccc4[nH]3)n2Cc2ccco2)cc1 | inactive | –
COc1ccccc1-c1cn[nH]c1-c1ccc(OCc2ccccc2)cc1O | inactive | –
CSCCC(NS(=O)(=O)c1ccc(C)cc1)C(=O)N1CCN(C(c2ccccc2)c2ccccc2)CC1 (stereo unspecified) | inconclusive: 7.08 µM [activator, partial curve, poor fit] | –
Oc1ccc(-c2nccc(-c3ccccn3)n2)cc1 | inconclusive: 3.16 µM [activator, single point] | –
O=C(c1ccccc1-c1nc(-c2ccccc2Cl)no1)N1CCOCC1 | inconclusive: 12.6 µM [activator, single point] | –
Cc1ccc(N(C(=O)CCC(=O)Nc2cc(C)on2)C(C(=O)NC2CCCC2)c2ccccc2)cc1 (stereo unspecified) | inconclusive: 2.24 µM [activator, single point] | –
N#C/C(=C\c1cc(O)c(O)c(O)c1)C(N)=O | inactive | –
O=C(NC1CCc2ccccc21)c1cc(COc2cncc(Cl)c2)on1 (stereo unspecified) | inconclusive: 5.01 µM [activator, partial curve, poor fit] | –
Cc1ccc(C(C)(C)C)cc1S(=O)(=O)Nc1nc2ccccc2nc1Cl | inconclusive: 2.51 µM [activator, single point] | –
O=C(O)CCCCCN1C(=O)/C(=C/c2cn(-c3ccccc3)nc2-c2cccs2)SC1=S | inactive | –
CCOc1cc(NC(=S)NCCOC)c(OCC)cc1NC(=O)c1ccco1 | inactive | –
CCOc1ccc(OCCSc2nc(N)cc(=O)[nH]2)cc1 | inconclusive: 2.82 µM [activator, full curve, poor fit] | –
CN(C)/C=N/C(=S)Nc1ccccc1 | inactive | –
Cc1cc(C)c2oc(C(=O)Nc3nnc(C(C)C)s3)cc(=O)c2c1 | inactive | –

Compound | Potency | activation
CCOC(=O)C1CCN(C(=O)CCCn2nc(C)c3c(C)n(-c4ccc(C)cc4)nc3c2=O)CC1 | inconclusive: 0.794 µM [activator, single point] | –
O=C(CN1C(=O)C2C3C=CC(C4CC34)C2C1=O)Oc1ccccc1 (stereo unspecified) | inconclusive: 5.01 µM [activator, single point] | –
CC1Oc2ccccc2OC1C(=O)Nc1nccs1 (stereo unspecified) | inconclusive: 22.4 µM [activator, single point] | –
COc1ccc(/C=N/NC(=O)c2nc(-c3ccccc3)cc(-c3ccccc3)n2)cc1OC | inactive | –
Cc1cc(N/N=C/c2ccccc2)nc(N)n1 | inconclusive: 5.01 µM [activator, single point] | –
COc1ccc(CCNC2CCc3ccccc3C2)cc1 (stereo unspecified) | inactive | –
O=C(CCNS(=O)(=O)c1ccccc1)N1CCC(Cc2ccccc2)CC1 | inactive | –
Cc1ccc(C)c(NC(=O)CCN2C(=O)c3ccccc3C2=O)c1 | inconclusive: 2.82 µM [activator, partial curve, poor fit] | –
Cn1nc(C(=O)NC2CCCc3ccccc32)ccc1=O (stereo unspecified) | inconclusive: 11.2 µM [activator, single point] | –
COC(=O)Cc1ccc(NC(=S)NCCSc2ccc(C)cc2)cc1 | inactive | –
COc1cc(OC)cc(C(=O)N2CCCC(Nc3ccc(F)cc3)C2)c1 (stereo unspecified) | inconclusive: 0.891 µM [activator, single point] | –
CCc1cccc(NC(=O)CCCN2C(=O)NC(C)(C)C2=O)c1 | inactive | –
COC(=O)NCC(c1ccc2c(c1)OCO2)N1CCN(c2ccccc2)CC1 (stereo unspecified) | inconclusive: 5.01 µM [activator, single point] | –
O=S(=O)(Nc1ccc(S(=O)(=O)N2CCCC2)cc1)c1ccc(F)cc1F | inactive | –
O=C(COc1ccc2ccc(=O)oc2c1)NCCCn1ccnc1 | inconclusive: 28.2 µM [activator, single point] | –
O=C(CCCCCCCC(=O)NNC(=O)Nc1ccccc1)NNC(=O)Nc1ccccc1 | inconclusive: 20 µM [activator, single point] | –
CCN(CC(=O)NCc1ccc(F)cc1)C(=O)Cc1c(F)cccc1Cl | inconclusive: 28.2 µM [activator, single point] | –
O=C1NC(c2ccc3ccccc3c2)Nc2ccccc21 (stereo unspecified) | inactive | –
COc1ccc(-c2[nH]ncc2CN2CCN(c3ccccn3)CC2)c(OC)c1 | inconclusive: 0.891 µM [activator, full curve, poor fit] | –
CN(c1ccccc1)S(=O)(=O)c1ccc(C(=O)OCC(=O)NCc2cccs2)cc1 | inconclusive: 1.58 µM [activator, partial curve, poor fit] | –
COc1ccc(Nc2cc(C)nc3ncnn23)c(OC)c1 | inactive | –
COc1ccc(-c2cn(-c3ccc(OC)cc3)c3[n+]2-c2ccccc2CC3)cc1 | inactive | –
CN(CC(=O)Nc1ccc(F)c(F)c1F)C1CCCCC1 | inconclusive: 12.6 µM [activator, single point] | –

Pulled by compound from the entries so far (3):
Compound | Potency | activation
O=S(=O)(Nc1ccc(S(=O)(=O)N2CCCC2)cc1)c1ccc(F)cc1F | inactive | –
COC(=O)Cc1ccc(NC(=S)NCCSc2ccc(C)cc2)cc1 | inactive | –
O=C1NC(c2ccc3ccccc3c2)Nc2ccccc21 (stereo unspecified) | inactive | –
